These are yes or no findings as the source states them, for the method shown. For part of these data: Binding calls can cover weak binding; strength is not graded here. Sequences can lack the tags named with a protein.
T1: GST-tagged Aeromonas caviae flagellin-specific chaperone FlaJ (GST-FlaJ) (Aeromonas caviae) (UniProt Q9R9R5)
T1 sequence: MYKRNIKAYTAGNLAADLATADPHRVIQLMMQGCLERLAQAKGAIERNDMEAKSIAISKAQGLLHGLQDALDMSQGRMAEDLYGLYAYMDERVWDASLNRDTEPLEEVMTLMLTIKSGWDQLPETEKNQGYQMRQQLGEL


Tests used:
[1] = target: T1, GST-tagged Aeromonas caviae flagellin-specific chaperone FlaJ (GST-FlaJ) (Aeromonas caviae); assay: pull-down; 'handover': Maf1-His–FlaA/B complex purified from wild-type A. caviae mixed with equimolar purified GST-FlaJ in vitro, then glutathione affinity chromatography; load, flow-through and elution blotted with α-His, α-GST and α-FlaA/B(+pse); both purified
[2] = target: unglycosylated Aeromonas caviae FlaA purified from E. coli, FlaA (−pse) (Aeromonas caviae); assay: far-Western, overlay or dot blot; purified proteins resolved by SDS-PAGE and blotted; membrane incubated in PBS with purified GST or GST-FlaJ at 0.01 mg ml^−1; detected with αGST-HRP conjugate and ECL; both purified
[3] = target: unglycosylated Aeromonas caviae FlaA purified from E. coli, FlaA (−pse) (Aeromonas caviae); assay: far-Western, overlay or dot blot; glycosylated and unglycosylated FlaA titrated across an SDS-PAGE gel, transferred to nitrocellulose, probed with a constant concentration of GST-FlaJ; αGST-HRP, densitometry, triplicate blots; both purified

| Molecule | binding [1] | binding [2] | binding [3] |
| --- | --- | --- | --- |
| Aeromonas caviae Maf1 with C-terminal penta-His tag (Maf1-His) (enzyme) | no binding |  |  |
| GST-tagged Aeromonas caviae flagellin-specific chaperone FlaJ (GST-FlaJ) (protein, UniProt Q9R9R5 1-140) MYKRNIKAYTAGNLAADLATADPHRVIQLMMQGCLERLAQAKGAIERNDMEAKSIAISKAQGLLHGLQDALDMSQGRMAEDLYGLYAYMDERVWDASLNRDTEPLEEVMTLMLTIKSGWDQLPETEKNQGYQMRQQLGEL |  | binds | binds |
